Laboratory results published in patent US10265374B2, “Occidiofungin formations and uses thereof” (MISSISSIPPI STATE UNIVERSITY, priority 2014, dated 2019).
At least one read-out could not be matched to a standard name with certainty.

Assay: Pharmacokinetics of occidiofungin in DOPC or DOPC:DPPG vesicles
Type: in vivo
Details: 2.5 mg/kg i.v., mice
Protocol: Entrapment of occidiofungin in vesicles was done using 1,2-Dioleoyl-sn-glycero-3-phosphocholine (DOPC) and 1,2-dipalmitoyl-sn-glycero-3-[phospho-rac-(3-lysyl(1-glycerol))] (DPPG) from Avanti polar lipids. Lipid cake formation and subsequent hydration was done according to the manufacturer's recommendation. Briefly, 20 mg/ml of DOPC in chloroform was placed in a glass beaker and dried by vacuum evaporation to remove the organic solvent. The lipid film formed was hydrated using a 1 μg/μl solution of occidiofungin in 1.5% (2-Hydroxypropyl)-β-cyclodextrin (Alfa Aesar), while maintaining the lipid concentration at 20 mg/ml and the solution was sonicated to form the vesicles. Similarly, DPPG was mixed with DOPC at a ratio of 9:1 (DOPC:DPPG) to make a homogenous lipid mixture at a concentration of 20 mg/ml and the same process of drying and hydration was repeated to make vesicles. Following vesicle formation, estimation of the amount of occidiofungin trapped inside each type of vesicle was done. […]
Blood was drawn at time points 1 hpi, 3 hpi, 5 hpi, 7 hpi, 9 hpi, 12 hpi, 18 hpi, 24 hpi and 48 hpi. […] Fragmentation of the occidiofungin (parent mass 1200 and 1216 Da) was carried out and the fragment of 1068 and 1084 Da m/z, which corresponds to the occidiofungin molecule (A and B forms, respectively) without the xylose sugar, was used for quantification of occidiofungin. […]

occidiofungin
improvement of peak plasma concentrations relative to solubilizing in β-cyclodextrin alone: approximately ten-fold
